# Laboratory results taken from patent publication US8729035B2, “Synthesis of novel neamine derivatives and use thereof as antibacterial agents” (Universite Joseph Fourier, priority 2008, dated 2014).
# Some results were stated once for a whole list of compounds, not compound by compound.
# Tested on: C. amalonaticus 06AB0010 arm
# Assay: MIC determination on r-methylase-expressing resistant Gram (-) bacteria
# Type: cell-based, Citrobacter amalonaticus
# Conditions: resistant bacteria expressing an RNA methylation enzyme (r-methylase); one value stated for the three strains together; 24 hours incubation
# Protocol: The molecules were dissolved in water or DMSO at a concentration of 5 or 10 mg/mL, then the solutions were diluted if necessary. A volume of 200 μL of each of them was put onto a 96-well plate.
# C—Determination of the MIC
# The molecules with a screening score of 10 or 100 were selected to determine their MICs relative to the strains tested.
# As for the validation of the strains, the solution of the molecule selected was diluted by a factor of 2, times 2, using the Biomek2000 robot in 96-well plates to cover a wide range of concentrations. To each of these wells was added a volume of inoculum made from the previous days preculture diluted to 1/100th strength. Each well was repeated. Again, controls of non-contamination, growth and resistance/sensitivity to a reference antibiotic were included in the experiment. The plate was incubated at 37° C., and the kinetics of the bacterial proliferation were monitored over 24 hours, by measuring the OD620 nm at 0, 1, 4, 7, and 24 hours.
# The MIC was the lowest concentration found to be capable of inhibiting bacterial proliferation after 24 hours incubation. Having no previous idea of this value it was possible that it might not fall within the range of dilutions chosen. If this was the case the operation had to be repeated adjusting this range.
# Similar measurements were made on various Gram (−) bacteria. […]
substance,measurement,value
gentamicin,MIC,> 128 µg/mL
